Here are results for one molecule from article PMC10590398, “Hfq C-terminal region forms a β-rich amyloid-like motif without perturbing the N-terminal Sm-like structure” (Communications Biology, 2023).

No constants are given. Whether binding was seen depends on the method and setting.

This assay addresses Hfq 38-residue C-terminal region peptide (E. coli). The assay can be described thus: ATR-FTIR; assembled Hfq CTR (0.5 µL at 20 mg/mL in D2O) added onto a dried DOPG lipid film with 5 µL D2O; spectra every 90 min overnight (12 h); both purified.

B1: Hfq 38-residue C-terminal region peptide (peptide)
peptide: SRPVSHHSNNAGGGTSSNYHHGSSAQNTSAQQDSEETE
notes: Hfq (host factor 1), E. coli, C-terminal region; The lipid experiment names its sample only 'assembled Hfq CTR'; also called Hfq 38-residues; Hfq CTR; source: synthetic peptide (Proteogenix), assembled at 4 °C at 20 mg/mL for >1 month (D2O for FTIR)
Consider B1, for which the binding result is on record as “no binding (condition: with DOPG lipids, over 12 h)”.
